# Some of the results follow. The main result of the screen is listed elsewhere. These columns were measured beside it and carry no call. Compounds called inactive in the main read-out are mostly missing here. Words in brackets tell the shape of the fitted curve; partial curves, single points and poor fits give uncertain potencies.
# Test: qHTS Assay for Lipid Storage Modulators in Drosophila S3 Cells;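 on cell number change: cells counted by Cell Tracker Red CMTPX staining in the red channel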
# Conditions: BODIPY lipid droplet fluorescence, 18-24 h; for cell number change: measured here: cell count max response, cells fed with added oleic acid
# Procedure, shortened: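 Drosophila S3 cells loaded with oleic acid (400 uM, as added) and compounds at several concentrations; lipid droplets imaged by 488-nm laser-scanning cytometry, 500–530 nm intensity and object ratio to cell channel. Percent activity normalized to 20 uM Triacsin C.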
# [1] = measured here: lipid fluorescence (Fed channel) AC50, cells fed with added oleic acid
# [2] = measured here: cell number channel AC50, cells fed with added oleic acid
Compound,cell number change [%],AC50 [1],AC50 [2]
Cc1cc(S(=O)(=O)N2CCCCC2)ccc1OCC(=O)N1CCOCC1,-10.2,"29.1 µM [falling, single point]",–
COc1cc(/C=C/c2cccc[n+]2C)ccc1OCC(=O)Nc1cccc(Cl)c1,94.9,"29.1 µM [falling, single point]","10.3 µM [rising, partial curve]"
O=C(NNC(=S)Nc1cccc(C(F)(F)F)c1)c1cccc(Cl)c1,-40.4,"4.61 µM [falling, partial curve]","16.4 µM [falling, single point]"
CCCCc1ccc(NC(=O)CSc2nc(=O)n(CCN(CC)CC)c3c2CCCC3)cc1,–,–,"4.61 µM [rising, single point]"
CC1C(=O)N2CCCc3cc(S(=O)(=O)N4CCN(c5ccc(F)cc5)CC4)cc1c32 (stereo not drawn),31.3,–,"29.1 µM [rising, single point]"
CC(OC(=O)CCc1nc2ccccc2c(=O)[nH]1)C(=O)Nc1ncc(Cl)cc1Cl (stereo not drawn),–,"2.06 µM [falling, single point]",–
O=C(c1cccc(S(=O)(=O)N2CCCCC2)c1)N1CCCCC1,38.2,–,"7.31 µM [rising, partial curve]"
Cc1cc(C)cc(NS(=O)(=O)c2ccc(Oc3ncc(C(F)(F)F)cc3Cl)cc2)c1,-65.7,"2.59 µM [falling, partial curve]","32.6 µM [falling, partial curve]"
Cc1ccccc1NC(=O)C1CCN(c2cc(-c3ccccc3)nc3ncnn23)CC1,-22,"20.6 µM [falling, partial curve, poor fit]",–
COc1ccccc1NS(=O)(=O)c1cc(NC(=O)CCC(=O)c2cccs2)ccc1Cl,18,"16.4 µM [rising, partial curve]",–
COc1ccc(Cc2nc3ccccc3[nH]c2=O)cc1,–,"0.206 µM [falling, single point]",–
CCCc1[nH]n(-c2ccc([N+](=O)[O-])cc2)c(=O)c1C=NCCc1c[nH]c2ccccc12,–,"0.58 µM [rising, single point]",–
CC(=O)N1CCN(CCN=CC2=C(O)CC(C)(C)CC2=O)CC1,-38.2,"29.1 µM [falling, single point]","4.61 µM [falling, full curve]"
Cc1cc(C)cc(C(=O)NC(CC(N)=O)c2ccc(NC3CCCCCCC3)c([N+](=O)[O-])c2)c1 (stereo not drawn),-21.3,"0.00461 µM [rising, full curve, poor fit]",–
CCC(Cc1ccccc1)NC(=O)Cn1cccc1C(=O)c1ccccc1 (stereo not drawn),41.6,"29.1 µM [rising, single point]","16.4 µM [rising, single point]"
COc1ccccc1/C=C1\CCCC2=C1Nc1nnnn1C2c1ccccc1OC (stereo not drawn),17.3,–,–
O=C(COC(=O)COc1ccccc1)NCCc1ccccc1,-33.3,–,"10.3 µM [falling, partial curve]"
CCC(C)N=CC1=C(O)CC(c2ccccc2)CC1=O (stereo not drawn),11.2,–,–
CCOC(=O)c1c(NC(=O)OC)sc(C(=O)N(C)C)c1C,-31.2,"14.6 µM [rising, partial curve, poor fit]","8.2 µM [falling, partial curve]"
CCCCN(CC)C(=S)Nc1ccc2nc3n(c(=O)c2c1)CCCCC3,4.4,"3.26 µM [rising, partial curve]","1.84 µM [rising, partial curve]"

Compound,cell number change [%],AC50 [1],AC50 [2]
COc1ccc(C(C)NC(=S)NCc2ccc(F)cc2)cc1OC (stereo not drawn),1.47,–,"3.26 µM [rising, partial curve, poor fit]"
COc1ccc(S(=O)(=O)N2CCCN(S(=O)(=O)c3ccc(OC)cc3C)CC2)c(C)c1,-2.21,–,"0.092 µM [falling, full curve, poor fit]"
COc1ccc(NC(=O)C(=O)NCCC2=CCCCC2)c(OC)c1,-44,–,"6.51 µM [falling, partial curve, poor fit]"
CS(=O)(=O)c1cnc(-c2ccccc2)nc1-c1ccccc1Cl,–,"0.58 µM [rising, partial curve]",–
O=C(O)CCC(=O)Nc1nnc(C(F)(F)F)s1,–,"18.4 µM [falling, partial curve]",–
O=C(COC(=O)c1cccnc1Cl)NCCc1ccccc1,0.491,–,–
Cc1ccc(-n2c(CC#N)n[nH]c2=S)c(C)c1,-23.2,"29.1 µM [falling, single point]","0.164 µM [falling, full curve, poor fit]"
COC(=O)c1ccc(OC(=O)c2cccnc2)cc1,6.43,–,–
CCOC(=O)C1=C(C)NC(=O)NC1c1ccccc1 (stereo not drawn),38.8,"0.146 µM [falling, full curve, poor fit]","29.1 µM [rising, single point]"
O=C1c2ccccc2C(=O)c2c1cccc2N1CCOCC1,-26.4,"0.184 µM [falling, full curve, poor fit]",–
CCC(=O)Nc1cccc(Br)c1,-18.8,"25.9 µM [falling, single point]","2.06 µM [falling, single point]"
O=C(O)CCSc1ccc([N+](=O)[O-])cc1[N+](=O)[O-],–,"3.26 µM [falling, single point]","1.84 µM [falling, single point]"
FC(F)(F)c1cccc(NC(=S)NCc2ccc(Cl)cc2)c1,-43.6,"29.1 µM [falling, single point]","8.2 µM [falling, partial curve]"
CC1(C)CC(=O)C(/C=N/c2ncccc2C(=O)O)=C(O)C1,23.1,"1.46 µM [rising, full curve, poor fit]",–
Cc1ccc(-n2ncc3c(=O)n(CC(=O)NCC4CCCO4)cnc32)cc1 (stereo not drawn),-14.3,"0.651 µM [rising, single point]",–
O=C(O)CSc1nnc(COc2cccc3cccnc23)n1-c1ccc(Cl)cc1,27.6,–,–
COc1ccc(C(C)C)cc1S(=O)(=O)NCC1CCCO1 (stereo not drawn),49.5,–,"6.51 µM [rising, partial curve]"
Cc1cccc(N2CCN(S(=O)(=O)c3ccc4c(c3)CCN4C(=O)CCC(=O)O)CC2C)c1 (stereo not drawn),-19,"6.51 µM [falling, single point]",–
O=[N+]([O-])c1cccc(P(=O)(O)c2cccc([N+](=O)[O-])c2)c1,-41.3,"0.461 µM [falling, full curve]",–
CCCCNS(=O)(=O)c1ccc(NC(=O)c2cccs2)cc1,0.287,–,–

Compound,cell number change [%],AC50 [1],AC50 [2]
NC(=O)c1ccc(N2CCN(c3ccc(O)cc3)CC2)c([N+](=O)[O-])c1,-7.69,"7.31 µM [falling, partial curve]",–
Cc1csc(SC(C)C(=O)NCC2CCCO2)n1 (stereo not drawn),-5.23,"18.4 µM [rising, partial curve]",–
Fc1cccc(-c2c(-c3ccccc3)ncc3cc(F)ccc23)c1,10.6,"0.58 µM [falling, single point]",–
COCC(C)NC(=O)Cc1ccc(F)cc1 (stereo not drawn),-61.9,–,"16.4 µM [falling, partial curve]"
Cc1cc(=O)n2nc(N3CCCC(C(=O)Nc4ccc(C)c(C)c4)C3)sc2n1 (stereo not drawn),-1.44,"11.6 µM [falling, single point]",–
Cc1c(-c2cccc(Cl)c2)nc2ccccc2c1C(=O)OCC(=O)Nc1ccc2c(c1)OCO2,-5.05,"1.84 µM [rising, partial curve]",–
CSc1ccc(C2NC(=O)c3c(sc4c3CCN(C)C4)N2)cc1 (stereo not drawn),-30.1,"0.461 µM [rising, full curve]","0.103 µM [falling, full curve, poor fit]"
O=C(NCCCN1CCCC1=O)c1cc(S(=O)(=O)N2CCOCC2)c(Cl)cc1Cl,-6.02,–,–
CCn1cc(C(=O)NC2CCc3ccccc32)c(=O)c2ccc(C)nc21 (stereo not drawn),25.2,–,"0.731 µM [rising, partial curve]"
O=C(Nc1cccn2ncnc12)c1ccccc1,158,–,"6.51 µM [rising, full curve]"
COC(=O)c1ccc(Cn2nc(C)c([N+](=O)[O-])c2C)o1,-38.1,"18.4 µM [falling, partial curve]","9.2 µM [falling, partial curve]"
Cc1cc2[nH]cnc2c([N+](=O)[O-])c1C,28.7,"29.1 µM [rising, single point]",–
Cc1cc(=O)oc2cc(OCC(=O)N3CCN(c4ccc(F)cc4)CC3)c(Cl)cc12,6.6,–,–
NNC(=O)Cn1c(COc2ccc(Cl)cc2)nc2ccccc21,26.6,"6.51 µM [rising, partial curve]",–
NC(=O)CC12CC3CC(C1)CC(CC(N)=O)(C3)C2,-35.4,"1.16 µM [falling, full curve]","0.58 µM [falling, full curve]"
OC(CNC1CCCc2ccccc21)COc1ccc2ccccc2c1 (stereo not drawn),-47.2,–,"29.1 µM [falling, single point]"
CCOc1ccc(-c2nnc(-c3cccs3)o2)cc1OCC,4.76,"0.00461 µM [rising, full curve, poor fit]",–
CC1CCCCC12NC(=O)N(CC(=O)N1CCc3ccccc3C1)C2=O (stereo not drawn),-25,"29.1 µM [rising, single point]","3.66 µM [falling, full curve, poor fit]"
CCc1ccccc1NC(=O)CCNS(=O)(=O)c1cc(Br)cnc1N,–,"0.116 µM [rising, single point]",–

# A second format for 13 compounds above:
Compound	cell number change [%]	AC50 [1]	AC50 [2]
COCC(C)NC(=O)Cc1ccc(F)cc1 (stereo not drawn)	-61.9	–	16.4 µM [falling, partial curve]
Cc1cc(=O)n2nc(N3CCCC(C(=O)Nc4ccc(C)c(C)c4)C3)sc2n1 (stereo not drawn)	-1.44	11.6 µM [falling, single point]	–
Cc1c(-c2cccc(Cl)c2)nc2ccccc2c1C(=O)OCC(=O)Nc1ccc2c(c1)OCO2	-5.05	1.84 µM [rising, partial curve]	–
CSc1ccc(C2NC(=O)c3c(sc4c3CCN(C)C4)N2)cc1 (stereo not drawn)	-30.1	0.461 µM [rising, full curve]	0.103 µM [falling, full curve, poor fit]
O=C(NCCCN1CCCC1=O)c1cc(S(=O)(=O)N2CCOCC2)c(Cl)cc1Cl	-6.02	–	–
CCn1cc(C(=O)NC2CCc3ccccc32)c(=O)c2ccc(C)nc21 (stereo not drawn)	25.2	–	0.731 µM [rising, partial curve]
O=C(Nc1cccn2ncnc12)c1ccccc1	158	–	6.51 µM [rising, full curve]
COC(=O)c1ccc(Cn2nc(C)c([N+](=O)[O-])c2C)o1	-38.1	18.4 µM [falling, partial curve]	9.2 µM [falling, partial curve]
Cc1cc2[nH]cnc2c([N+](=O)[O-])c1C	28.7	29.1 µM [rising, single point]	–
Cc1cc(=O)oc2cc(OCC(=O)N3CCN(c4ccc(F)cc4)CC3)c(Cl)cc12	6.6	–	–
NNC(=O)Cn1c(COc2ccc(Cl)cc2)nc2ccccc21	26.6	6.51 µM [rising, partial curve]	–
NC(=O)CC12CC3CC(C1)CC(CC(N)=O)(C3)C2	-35.4	1.16 µM [falling, full curve]	0.58 µM [falling, full curve]
OC(CNC1CCCc2ccccc21)COc1ccc2ccccc2c1 (stereo not drawn)	-47.2	–	29.1 µM [falling, single point]

# Source: PubChem BioAssay AID2685 (National Center for Advancing Translational Sciences (NCATS), 2010)
